Results are given in words; binding and its absence hold for the method and conditions named. In cells and extracts the contact can be indirect. Some entries that bind do so weakly or less than the wild type. Each block holds one molecule with its values, some of them ahead of it.
What was measured:
[1] = molecular target: Cadherin-17 (CDH17), endogenous (human (endogenous in KM12SM and SW620)) (UniProt Q12864); assay: co-IP; KM12SM and SW620 lysates (1% Igepal, 100 mM NaCl, 2 mM MgCl2, 10% glycerol, 50 mM Tris-HCl), 1 mg lysate with Protein G-sepharose and anti-CDH17 or control antibodies for 16 h; Western blot; also after control, α2 integrin or DSC1 siRNA
[2] = molecular target: Cadherin-17 (CDH17), endogenous (human (endogenous in KM12SM and SW620)) (UniProt Q12864); assay: co-IP; KM12SM and SW620 lysates immunoprecipitated with control or anti-CDH17 antibodies in the presence or absence of the CDH17-NLV peptide (10 μg/mL); Western blot for DSC1 and CDH17
[3] = molecular target: Cadherin-17 (CDH17), endogenous (human (endogenous in KM12SM and SW620)) (UniProt Q12864); assay: co-IP; KM12SM and SW620 lysates (1% Igepal, 100 mM NaCl, 2 mM MgCl2, 10% glycerol, 50 mM Tris-HCl), 1 mg lysate with Protein G-sepharose and anti-CDH17 or control antibodies for 16 h; Western blot; also after control, α2 integrin or DSC1 siRNA; remark: listed apart in the source
[4] = molecular target: T1, desmocollin-1 (DSC1) (human (endogenous in RKO, HT-29, KM12SM and SW620)) (UniProt Q08554); assay: co-IP; competition: synthetic CDH17-NLV peptide (10 μg/mL) added to the anti-CDH17 immunoprecipitation of KM12SM and SW620 lysates; Western blot for DSC1 and CDH17; only the binder purified
T1 sequence: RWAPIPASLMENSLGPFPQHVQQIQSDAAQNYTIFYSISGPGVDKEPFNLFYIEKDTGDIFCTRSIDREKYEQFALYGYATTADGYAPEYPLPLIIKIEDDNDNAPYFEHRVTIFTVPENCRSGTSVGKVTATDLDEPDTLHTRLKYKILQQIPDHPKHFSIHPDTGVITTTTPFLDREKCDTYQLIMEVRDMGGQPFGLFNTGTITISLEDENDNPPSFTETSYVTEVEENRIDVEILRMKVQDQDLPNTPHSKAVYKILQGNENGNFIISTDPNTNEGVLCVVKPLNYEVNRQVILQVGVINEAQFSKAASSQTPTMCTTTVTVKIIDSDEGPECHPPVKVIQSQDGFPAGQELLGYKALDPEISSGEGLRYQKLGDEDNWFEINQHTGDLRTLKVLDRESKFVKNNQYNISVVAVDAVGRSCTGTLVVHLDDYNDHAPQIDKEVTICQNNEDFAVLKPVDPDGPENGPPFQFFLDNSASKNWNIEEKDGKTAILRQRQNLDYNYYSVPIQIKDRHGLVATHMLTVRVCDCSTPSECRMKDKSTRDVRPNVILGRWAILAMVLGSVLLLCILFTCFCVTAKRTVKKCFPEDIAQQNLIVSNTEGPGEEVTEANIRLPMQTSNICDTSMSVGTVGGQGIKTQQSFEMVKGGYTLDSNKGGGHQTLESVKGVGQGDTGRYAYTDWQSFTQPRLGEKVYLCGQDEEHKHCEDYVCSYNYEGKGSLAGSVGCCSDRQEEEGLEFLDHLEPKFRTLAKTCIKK

Sequences of proteins named here, by UniProt entry; tags and fusion partners are left off. Residues count along the entry.
UniProt Q12864, residues 23-832: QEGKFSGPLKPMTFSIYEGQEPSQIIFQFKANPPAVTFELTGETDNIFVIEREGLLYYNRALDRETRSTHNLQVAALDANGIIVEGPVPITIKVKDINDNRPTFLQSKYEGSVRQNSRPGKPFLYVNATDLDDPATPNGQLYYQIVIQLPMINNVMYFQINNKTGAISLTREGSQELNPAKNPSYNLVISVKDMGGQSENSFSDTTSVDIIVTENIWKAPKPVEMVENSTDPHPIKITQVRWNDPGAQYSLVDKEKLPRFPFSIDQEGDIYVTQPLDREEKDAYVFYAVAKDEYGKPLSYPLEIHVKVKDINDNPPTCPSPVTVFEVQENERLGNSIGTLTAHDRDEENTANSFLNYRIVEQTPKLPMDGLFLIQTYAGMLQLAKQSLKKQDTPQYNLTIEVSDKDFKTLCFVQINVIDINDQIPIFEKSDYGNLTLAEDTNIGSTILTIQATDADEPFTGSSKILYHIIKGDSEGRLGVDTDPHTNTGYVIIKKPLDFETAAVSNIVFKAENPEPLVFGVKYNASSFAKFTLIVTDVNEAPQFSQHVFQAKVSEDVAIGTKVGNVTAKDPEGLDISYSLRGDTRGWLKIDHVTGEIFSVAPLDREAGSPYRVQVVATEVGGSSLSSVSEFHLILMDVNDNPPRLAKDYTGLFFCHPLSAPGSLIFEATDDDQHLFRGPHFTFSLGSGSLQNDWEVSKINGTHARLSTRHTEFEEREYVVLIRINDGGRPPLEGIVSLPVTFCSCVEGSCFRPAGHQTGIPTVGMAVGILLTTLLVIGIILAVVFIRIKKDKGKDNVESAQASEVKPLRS
UniProt P35222: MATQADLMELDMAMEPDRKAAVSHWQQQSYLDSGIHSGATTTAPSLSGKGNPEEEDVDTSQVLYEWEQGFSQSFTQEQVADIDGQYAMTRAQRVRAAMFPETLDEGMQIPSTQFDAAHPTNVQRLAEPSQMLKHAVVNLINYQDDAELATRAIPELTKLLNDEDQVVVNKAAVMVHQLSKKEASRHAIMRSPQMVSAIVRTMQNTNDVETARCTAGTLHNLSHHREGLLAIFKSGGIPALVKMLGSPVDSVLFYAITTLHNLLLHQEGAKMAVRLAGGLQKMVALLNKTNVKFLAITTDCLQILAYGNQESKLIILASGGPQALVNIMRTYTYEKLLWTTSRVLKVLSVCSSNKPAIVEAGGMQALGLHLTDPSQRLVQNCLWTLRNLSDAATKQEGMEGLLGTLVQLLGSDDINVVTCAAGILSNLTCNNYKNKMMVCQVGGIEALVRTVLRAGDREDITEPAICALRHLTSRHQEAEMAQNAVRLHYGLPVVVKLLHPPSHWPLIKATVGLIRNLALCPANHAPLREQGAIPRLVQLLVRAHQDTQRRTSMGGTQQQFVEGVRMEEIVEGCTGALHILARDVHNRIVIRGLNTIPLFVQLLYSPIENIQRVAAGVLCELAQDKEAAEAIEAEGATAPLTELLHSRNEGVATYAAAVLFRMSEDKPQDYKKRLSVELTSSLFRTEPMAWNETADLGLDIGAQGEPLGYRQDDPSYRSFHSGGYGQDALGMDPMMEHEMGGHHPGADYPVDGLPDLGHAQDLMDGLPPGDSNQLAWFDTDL

[5] = molecular target: T1, desmocollin-1 (DSC1) (human (endogenous in RKO, HT-29, KM12SM and SW620)); assay: co-IP; KM12SM and SW620 lysates (1% Igepal, 100 mM NaCl, 2 mM MgCl2, 10% glycerol, 50 mM Tris-HCl), 1 mg lysate with Protein G-sepharose and anti-CDH17 or control antibodies for 16 h; Western blot; also after control, α2 integrin or DSC1 siRNA

binding [1]: binds
Molecule: β-catenin (from UniProt P35222 1-781)

binding [2]: binds | binding [3]: binds
B1: desmocollin-1 (DSC1) (protein, UniProt Q08554 135-894)
chain: T1 sequence

binding [4]: binds
Molecule: LNPAKNPSYNLVISVKDM [synthetic CDH17 peptide …]

binding [5]: binds
B2: p120-catenin (protein, UniProt O60716 1-968)
chain: MDDSEVESTASILASVKEQEAQFEKLTRALEEERRHVSAQLERVRVSPQDANPLMANGTLTRRHQNGRFVGDADLERQKFSDLKLNGPQDHSHLLYSTIPRMQEPGQIVETYTEEDPEGAMSVVSVETSDDGTTRRTETTVKKVVKTVTTRTVQPVAMGPDGLPVDASSVSNNYIQTLGRDFRKNGNGGPGPYVGQAGTATLPRNFHYPPDGYSRHYEDGYPGGSDNYGSLSRVTRIEERYRPSMEGYRAPSRQDVYGPQPQVRVGGSSVDLHRFHPEPYGLEDDQRSMGYDDLDYGMMSDYGTARRTGTPSDPRRRLRSYEDMIGEEVPSDQYYWAPLAQHERGSLASLDSLRKGGPPPPNWRQPELPEVIAMLGFRLDAVKSNAAAYLQHLCYRNDKVKTDVRKLKGIPVLVGLLDHPKKEVHLGACGALKNISFGRDQDNKIAIKNCDGVPALVRLLRKARDMDLTEVITGTLWNLSSHDSIKMEIVDHALHALTDEVIIPHSGWEREPNEDCKPRHIEWESVLTNTAGCLRNVSSERSEARRKLRECDGLVDALIFIVQAEIGQKDSDSKLVENCVCLLRNLSYQVHREIPQAERYQEAAPNVANNTGPHAASCFGAKKGKDEWFSRGKKPIEDPANDTVDFPKRTSPARGYELLFQPEVVRIYISLLKESKTPAILEASAGAIQNLCAGRWTYGRYIRSALRQEKALSAIADLLTNEHERVVKAASGALRNLAVDARNKELIGKHAIPNLVKNLPGGQQNSSWNFSEDTVISILNTINEVIAENLEAAKKLRETQGIEKLVLINKSGNRSEKEVRAAALVLQTIWGYKELRKPLEKEGWKKSDFQVNLNNASRSQSSHSYDDSTLPLIDRNQKSDKKPDREEIQMSNMGSNTKSLDNNYSTPNERGDHNRTLDRSGDLGDMEPLKGTTPLMQDEGQESLEEELDVLVLDDEGGQVSYPSMQKI

Reference: article PMC10807196
